The list is a part of this screen's results and no random one: it covers a few groups of compounds. Not every dose and run of a compound is shown. T/C gives the treated animals as a percentage of the vehicle group. Some T/C values are marked as having no survivor count here; that says nothing about deaths at the dose. Schedules are NCI's codes, taken here to give the interval after Q, in days (D) or hours (H), and the number of doses after X. Where survival is the endpoint, the PubChem record calls one and a half times the control and up active, and a quarter to a half above the control has no call in these data; cut-offs in other NCI protocols can differ.
System: BDF1 mice, s.c. Lewis lung carcinoma, T/C %
Assay: NCI In Vivo Anticancer Drug Screen. Data for tumor model Lewis Lung Carcinoma (subcutaneous) in B6D2F1 (BDF1) mice
Protocol: The antitumor activity of compounds was measured in mice bearing transplantable tumors. Survival or tumor size were measured and the results are expressed as the measurement made in the treated group (T) divided by the measurement made in the vehicle treated control group (C). The tumor model used in this assay is Lewis Lung Carcinoma (subcutaneous) in B6D2F1 (BDF1) mice

`ClCCN1CCCC1CCl` (centres undefined) was tested, and the T/C (T/C endpoint: median survival time, dose: 375.0 micrograms/kg/injection, schedule: Q01DX009 (ip), vehicle: saline, higher T/C = longer survival) was 112 % of control [survivor count not shown], the T/C (T/C endpoint: median survival time, dose: 750.0 micrograms/kg/injection, schedule: Q01DX009 (ip), vehicle: saline, higher T/C = longer survival) was 102 % of control [survivor count not shown] and the T/C (T/C endpoint: median survival time, dose: 1500.0 micrograms/kg/injection, schedule: Q01DX009 (ip), vehicle: saline, higher T/C = longer survival) was 110 % of control [survivor count not shown]. The T/C (T/C endpoint: median survival time, dose: 3000.0 micrograms/kg/injection, schedule: Q01DX009 (ip), vehicle: saline, higher T/C = longer survival) was 120 % of control [survivor count not shown].

In the case of `COCc1c(CN(CCCl)CCCl)cnc(C)c1O`, the T/C (T/C endpoint: mean tumor weight, dose: 0.5 mg/kg/injection, schedule: Q01DX011 (ip), vehicle: saline, evaluation day not shown, higher T/C = larger tumour) is reported as 31 % of control [survivor count not shown], the T/C (T/C endpoint: mean tumor weight, dose: 1.0 mg/kg/injection, schedule: Q01DX011 (ip), vehicle: saline, evaluation day not shown, higher T/C = larger tumour) is reported as 74 % of control [survivor count not shown] and the T/C (T/C endpoint: mean tumor weight, dose: 2.0 mg/kg/injection, schedule: Q01DX011 (ip), vehicle: saline, evaluation day not shown, higher T/C = larger tumour) is reported as 58 % of control [survivor count not shown]. The T/C (T/C endpoint: mean tumor weight, dose: 3.8 mg/kg/injection, schedule: Q01DX011 (ip), vehicle: other, evaluation day not shown, higher T/C = larger tumour) was 42 % of control [survivor count not shown], the T/C (T/C endpoint: mean tumor weight, dose: 4.0 mg/kg/injection, schedule: Q01DX011 (ip), vehicle: saline, evaluation day not shown, higher T/C = larger tumour) was 84 % of control [survivor count not shown] and the T/C (T/C endpoint: mean tumor weight, dose: 7.5 mg/kg/injection, schedule: Q01DX011 (ip), vehicle: other, evaluation day not shown, higher T/C = larger tumour) was 48 % of control [survivor count not shown].

For `ClCCCCC(CCl)NCCCl` (centres undefined), the T/C (T/C endpoint: mean tumor weight, dose: 14.0 mg/kg/injection, schedule: Q01DX011 (ip), vehicle: saline, evaluation day not shown, higher T/C = larger tumour) was 73 % of control [survivor count not shown], the T/C (T/C endpoint: mean tumor weight, dose: 21.0 mg/kg/injection, schedule: Q01DX011 (ip), vehicle: saline, evaluation day not shown, higher T/C = larger tumour) was 61 % of control [survivor count not shown] and the T/C (T/C endpoint: mean tumor weight, dose: 31.0 mg/kg/injection, schedule: Q01DX011 (ip), vehicle: saline, evaluation day not shown, higher T/C = larger tumour) was 39 % of control [survivor count not shown]. For the same compound, the T/C (T/C endpoint: mean tumor weight, dose: 47.0 mg/kg/injection, schedule: Q01DX011 (ip), vehicle: saline, evaluation day not shown, higher T/C = larger tumour) was 47 % of control [survivor count not shown].

— PubChem BioAssay AID270 (DTP/NCI, 2004)
